# Over roughly 33,000 sequences, “E-score (-0.5 to 0.5)” has its median near -8e-05; the highest 2% begin near 0.23. This is one part of the list.
# Target: T1, Nrg2 (UniProt P38082)
# T1 sequence: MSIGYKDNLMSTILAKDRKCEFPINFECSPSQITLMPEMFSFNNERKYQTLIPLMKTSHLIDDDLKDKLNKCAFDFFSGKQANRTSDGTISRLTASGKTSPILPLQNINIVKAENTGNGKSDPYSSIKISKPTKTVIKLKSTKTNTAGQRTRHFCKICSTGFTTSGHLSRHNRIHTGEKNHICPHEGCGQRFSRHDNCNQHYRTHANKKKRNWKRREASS
# Assay: PBM E-score (8-mer binding enrichment) (E-score (-0.5 to 0.5)); higher = stronger / more preferred TF binding
# Details: protein concentration: 100 nM; construct: GST-full length
# Outline: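 Full-length yeast transcription factors or their DNA-binding domains, GST-tagged and expressed with PURExpress, were applied at about 100-200 nM to universal all-10-mer Agilent arrays. These arrays had been made double-stranded by primer extension on fresh or once-stripped slides. Detection used fluorescent anti-GST, normalisation used masliner, and E-scores for ungapped eight-base words pooled with reverse complements came from the Universal PBM Analysis Suite.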
row,Sequence,PBM E-score
1,CACTTTTA,0.0308
2,CGTGTGTA,0.0917
3,GTTAGACA,0.102
4,GTCGAGTA,-0.0512
5,AACGCGAA,0.249
6,AGTGAGTA,0.214
7,ACGCCGCC,-0.217
8,GGCTCTTA,-0.275
9,AACCTCAA,-0.0094
10,CATATGCG,0.0817
11,CGTATTTC,0.0134
12,ATTTACCG,-0.0198
13,GTCCGGTA,-0.0698
14,TCGGAAGA,-0.312
15,ATGGGGTA,0.127
16,GATTCGAC,0.141
17,ATGGATCC,0.102
18,CGAGGACG,-0.00679
19,GGGTTGTA,0.0662
20,GTACCAAA,0.114
21,TGCGCGAA,0.175
22,TCCATCGA,-0.021
23,AAATCGCG,0.233
24,GGTAGAGA,0.0968
25,TCTACTAA,0.178

row,Sequence,PBM E-score
1,CAATACCA,0.192
2,ACGGAGCA,0.0328
3,ACTTTACT,0.077
4,CCTCCACC,-0.238
5,CAACTGGC,0.0483
6,ACGATCAA,0.0329
7,GCTGACCC,-0.173
8,GAGATCGA,0.147
9,GCGGCGAA,-0.0251
10,GGGCTTAA,-0.194
11,ATTGTAGA,0.124
12,TAGTAGAA,0.00186
13,GGGGTACC,-0.19
14,CTGGGGAC,-0.207
15,ACTTGGTA,0.0189
16,ATACAGTG,0.115
17,AGTTATTC,0.0259
18,GTCGTGCA,0.0294
19,AAAGACTG,-0.256
20,AAGCCTTA,-0.209
21,CCATACGC,0.176
22,AGTGGTTA,0.0663
23,AGGGTAGG,0.128
24,AACACTTA,0.0637
25,GCGAAAAC,-0.0554

row,Sequence,PBM E-score
1,CATGGATA,-0.0473
2,AATAACGT,0.0816
3,ATAACAGG,0.0173
4,CGTTAACA,0.0761
5,CGGGAGTC,-0.0462
6,GAGCTAGC,0.0528
7,AAGATGAG,-0.101
8,GATAGTGA,0.128
9,CCAAGGGG,0.00028
10,CTCGCTAC,0.00922
11,AAACCATA,-0.047
12,GAGCCATA,-0.0732
13,CCACGCGA,0.0879
14,AAGAGCAC,0.0239
15,CGTGTCGC,0.0103
16,ACAATTAA,0.179
17,CACCAACC,-0.0422
18,ACAGTCAG,0.11
19,CAATCAGA,-0.0298
20,AGAAGCGA,0.0168
21,CACACTGG,-0.0291
22,CATCATTC,0.0606
23,TGTAGTAA,-0.00939
24,AATTGAAA,0.184
25,ATGTGAAG,0.0267

row,Sequence,PBM E-score
1,GATAATCA,0.119
2,CACTGAGG,-0.124
3,ATTCTGAC,-0.12
4,GCTCTAAC,-0.106
5,CCAGAATC,0.0274
6,CTCGGCTC,-0.0484
7,CAGAAGTA,0.158
8,GCAGCCAA,0.00266
9,CATGGGGC,0.0617
10,ATGAGTGA,0.169
11,AGGTAAGC,-0.117
12,TCAACCCA,0.134
13,ACAAACGA,0.167
14,CCAGCCGG,-0.128
15,TCAGTGGA,-0.0446
16,TCAAAAAA,0.211
17,TGCACGAA,0.0663
18,AGTGATAG,0.0367
19,AAGTAACT,0.129
20,ACTGTTAT,0.169
21,ATCTGCAT,0.177
22,GCCTCACA,-0.0233
23,CGAGTTGC,0.106
24,ATCGACCG,-0.0487
25,CGAGAAGA,0.0748

row,Sequence,PBM E-score
1,CGAAATCA,0.244
2,AAGGCGAT,-0.157
3,CTGGGCGA,-0.0463
4,ATCGCGAA,0.268
5,CTATCAGC,-0.00748
6,CCATTGAA,0.0745
7,GGATCGTA,-0.0229
8,GTCGGCTA,0.0877
9,GAGGGATA,-0.145
10,CTAACCCC,-0.17
11,GGATCTAA,-0.034
12,CGCTTACG,-0.284
13,ATTACGTG,0.00099
14,ACACTCCA,-0.0789
15,AACCAGTC,-0.0183
16,AGGCGTGG,-0.244
17,CCAAGCAG,-0.0588
18,AACTAGCG,0.206
19,AATCTGTG,0.0299
20,AGACGGCG,0.108
21,CTCATGAC,0.071
22,AGTATCAT,0.136
23,AGTCTTTA,-0.229
24,ATAGATAG,0.0664
25,ACGCACAT,0.106

# Part of the list above, tab-delimited:
row	Sequence	PBM E-score
2	AAGGCGAT	-0.157
3	CTGGGCGA	-0.0463
7	GGATCGTA	-0.0229
16	AGGCGTGG	-0.244
25	ACGCACAT	0.106

# Following part

row,Sequence,PBM E-score
1,TACGGGCA,-0.0372
2,CCAAGACA,0.0563
3,CTCGCGAC,0.192
4,AGCTGGAA,-0.172
5,CTTGACTA,-0.0721
6,CCGAAACA,0.102
7,ACACGTCA,0.0027
8,ATTCCTCA,-0.0108
9,ACGCATAA,0.0866
10,ACACATTA,0.00743
11,GCCACTAC,-0.0397
12,GGCCCTCA,-0.133
13,AGCCCTGG,-0.0338
14,AGTCGGAG,-0.0846
15,GGCACGTA,-0.133
16,ATACGGGG,0.0395
17,CTTTCGAC,0.0428
18,GCAACGGC,0.0443
19,AAACTGGC,0.0731
20,ATCAGAAC,-0.0385
21,CCTTGCGA,0.142
22,AGGGGGTA,-0.308
23,AGCTGGCA,0.0261
24,ATTATACC,0.18
25,CTCTAGTC,-0.303

# 3 entries from above, with tabs:
row	Sequence	PBM E-score
23	AGCTGGCA	0.0261
24	ATTATACC	0.18
25	CTCTAGTC	-0.303

# (further entries)

row,Sequence,PBM E-score
1,TGACCCAA,0.1
2,TAGCCAAA,0.0368
3,ATATTGCA,0.113
4,AGTGCATG,-0.022
5,ATATCGCC,0.0573
6,GCCTTCAA,-0.0972
7,ACTTTCAC,0.0358
8,CAACCGTC,-0.152
9,AACACACT,0.16
10,CCTAGCGC,0.00435
11,ACAAAGCT,0.11
12,AATAGTAG,0.14
13,CGCAATTA,0.084
14,GTTTGATA,0.13
15,GTCATACA,0.0721
16,AAAGTACG,0.018
17,ACCTGCTC,0.00487
18,AGCTGGCG,-0.158
19,CCCCACTC,-0.0662
20,TAGAGTGA,-0.166
21,CATGTAAC,0.0421
22,AGACTAAT,-0.261

# — the supplement of paper PMC3334620
